PubChem BioAssay AID504764 – Drosophila RNAi Screening Center, 2011
The deposit covers about 22,000 reagents; this is a random part of those that have a named target and a result. Of all reagents, 403 (1.9%) got an active call. 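Unnormalised raw counts per well; ratio z-scores behind the hit calls and whether each hit raises or lowers signal are not deposited.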 Names joined by + are all predicted targets of the reagent. The record does not give: the amount of reagent.

Purpose: 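Genome-wide screen for regulators of Notch-driven gene expression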 (primary screen)
Cell system: Drosophila Kc167 cells
Reagents: long dsRNA against Drosophila genes
Time to read-out: about 5 days (4 days dsRNA, then 24 h after transfection)
Treatment: transfection of constitutively active membrane-tethered Notch lacking the extracellular domain, read 24 h later
Measurement: 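Firefly luciferase from an E(spl)m3 reporter with active Notch, plus control-promoter and uninduced reporter wells for normalisation; unnormalised counts, duplicate wells a and b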
Reading the numbers: induced reporter light, run 1, well a and induced reporter light, run 1, well b: higher = more light from the Notch target reporter with active Notch; control promoter light, run 1, well a and control promoter light, run 1, well b: higher = more light from the viral control promoter (cell number, transfection, viability); uninduced reporter light, run 1, well a: higher = more light from the Notch target reporter without active Notch
Call rule: 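Wells with low control signal or poorly matching duplicates excluded; duplicates averaged; per source plate, z beyond ±2 for induced/control log2 ratio or beyond ±1.8 for induced/uninduced marks a hit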
Meaning of the calls: active = modifier hit (raised or lowered Notch signal); inactive = not a hit

gene | PubChem SID | induced reporter light, run 1, well a | induced reporter light, run 1, well b | control promoter light, run 1, well a | control promoter light, run 1, well b | uninduced reporter light, run 1, well a | call
Polr2E | SID104185892 | 28775 | 21335 | 26570 | 25905 | 2860 | inactive
RNASEK | SID104201333 | – | – | – | – | – | inactive
wde | SID104185747 | 85820 | 83310 | 65550 | 60960 | 6440 | inactive
CG6149 | SID104190385 | 1.89e5 | 1.25e5 | 2.30e5 | 1.99e5 | 8500 | inactive
CG33268 | SID104189935 | 1.77e5 | 1.44e5 | 2.50e5 | 1.99e5 | 9605 | inactive
msn | SID104187782 | 2.60e5 | 2.08e5 | 2.81e5 | 3.01e5 | 14690 | inactive
msn | SID104188290 | 1.19e5 | 93470 | 1.73e5 | 1.41e5 | 4960 | inactive
Tango1 | SID104181919 | 1.34e5 | 1.46e5 | 1.43e5 | 1.70e5 | 12100 | inactive
Pk34A | SID104183190 | 1.76e5 | 1.93e5 | 1.91e5 | 2.09e5 | 15050 | inactive
Ent1 | SID104180122 | 1.76e5 | 1.78e5 | 2.07e5 | 2.02e5 | 17705 | inactive
Task6 | SID104196322 | 1.79e5 | 2.20e5 | 2.03e5 | 1.89e5 | 15750 | inactive
Mst77F | SID104191663 | 1.15e5 | 1.26e5 | 1.04e5 | 1.24e5 | 10125 | inactive
nonC | SID104198158 | 72545 | 68510 | 92360 | 1.07e5 | 3915 | inactive
nonC | SID104198159 | 1.36e5 | 1.41e5 | 3.60e5 | 3.17e5 | 10092 | active
pgc | SID104183891 | 20950 | 31715 | 41775 | 39385 | 3120 | inactive
CG1113 | SID104191955 | 1.02e5 | 1.13e5 | 93610 | 64010 | 4075 | inactive
toe | SID104188966 | 2.29e5 | 2.51e5 | 1.90e5 | 1.72e5 | 14465 | active
toe | SID104189575 | 81020 | 78795 | 71120 | 81100 | 8445 | inactive
Psf3 | SID104198008 | 1.18e5 | 1.31e5 | 1.30e5 | 1.64e5 | 8470 | inactive
CG32812 | SID104198270 | 1.34e5 | 1.50e5 | 3.00e5 | 2.84e5 | 10630 | inactive
CG11313 | SID104194087 | 1.27e5 | 1.00e5 | 1.66e5 | 1.86e5 | 10250 | inactive
Oseg1 | SID104190568 | 1.16e5 | 97360 | 1.02e5 | 29320 | 10885 | inactive
CG11597 | SID104189639 | 1.42e5 | 1.37e5 | 1.25e5 | 83705 | 15355 | inactive
CG8300 | SID104198218 | 75750 | 83815 | 41355 | 48010 | 12720 | inactive
Or33c | SID104183180 | 1.78e5 | 1.85e5 | 1.95e5 | 1.93e5 | 17080 | inactive
I-3 | SID104200271 | 82320 | 81860 | 94310 | 1.13e5 | 9285 | inactive
TyrR | SID104196034 | 2.35e5 | 1.83e5 | 2.59e5 | 2.68e5 | 15865 | inactive
Cdk9 | SID104184393 | 1.49e5 | 1.22e5 | 1.28e5 | 1.28e5 | 7905 | active
Vps39 | SID104195997 | 61925 | 73005 | 57805 | 58700 | 5915 | inactive

Part of the list above in another layout:
CG8300 [SID104198218]
- induced reporter light, run 1, well a: 75750
- induced reporter light, run 1, well b: 83815
- control promoter light, run 1, well a: 41355
- control promoter light, run 1, well b: 48010
- uninduced reporter light, run 1, well a: 12720
- call: inactive

Or33c [SID104183180]
- induced reporter light, run 1, well a: 1.78e5
- induced reporter light, run 1, well b: 1.85e5
- control promoter light, run 1, well a: 1.95e5
- control promoter light, run 1, well b: 1.93e5
- uninduced reporter light, run 1, well a: 17080
- call: inactive

I-3 [SID104200271]
- induced reporter light, run 1, well a: 82320
- induced reporter light, run 1, well b: 81860
- control promoter light, run 1, well a: 94310
- control promoter light, run 1, well b: 1.13e5
- uninduced reporter light, run 1, well a: 9285
- call: inactive

TyrR [SID104196034]
- induced reporter light, run 1, well a: 2.35e5
- induced reporter light, run 1, well b: 1.83e5
- control promoter light, run 1, well a: 2.59e5
- control promoter light, run 1, well b: 2.68e5
- uninduced reporter light, run 1, well a: 15865
- call: inactive

Additional reagents follow.
gene | PubChem SID | induced reporter light, run 1, well a | induced reporter light, run 1, well b | control promoter light, run 1, well a | control promoter light, run 1, well b | uninduced reporter light, run 1, well a | call
Sh3beta | SID104190793 | 1.12e5 | 87950 | 68365 | 46140 | 10745 | inactive
mof | SID104198587 | 1.31e5 | 1.21e5 | 2.13e5 | 2.40e5 | 10720 | inactive
BaraC | SID104183677 | 1.04e5 | 81235 | 79245 | 86490 | 8405 | inactive
klar | SID104188510 | 95215 | 90110 | 1.74e5 | 2.06e5 | 7190 | inactive
sr | SID104193076 | 76180 | 69660 | 92025 | 74025 | 9465 | inactive
sr | SID104196859 | 15555 | 16835 | 12540 | 13715 | 4900 | inactive
sNPF | SID104182101 | 41345 | 34260 | 47030 | 31280 | 3020 | inactive
yellow-e | SID104192758 | 1.33e5 | 1.36e5 | 2.13e5 | 1.67e5 | 11250 | inactive
yellow-e | SID104196355 | 2.41e5 | 2.35e5 | 2.63e5 | 2.40e5 | 18800 | inactive
Tsp96F | SID104193939 | 2.11e5 | 2.26e5 | 3.01e5 | 2.69e5 | 14110 | inactive
CG12194 | SID104180137 | 2.37e5 | 1.64e5 | 2.51e5 | 2.37e5 | 13885 | inactive
Nup160 + RfC38 | SID104181789 | 1.79e5 | 2.05e5 | 1.91e5 | 2.04e5 | 17270 | inactive
CG8910 | SID104187206 | 87410 | 92630 | 1.72e5 | 1.75e5 | 8740 | inactive
Sh | SID104199006 | 7220 | 5410 | 7070 | 9540 | 3670 | inactive
Sh | SID104199012 | 88640 | 89410 | 84840 | 89020 | 6550 | inactive
Sh | SID104199577 | 90725 | 88270 | 1.26e5 | 1.01e5 | 11145 | inactive
Sh | SID104199847 | 70765 | 70005 | 56835 | 64390 | 9832 | inactive
alpha-Est7 | SID104192411 | 2.11e5 | 1.49e5 | 3.27e5 | 2.87e5 | 15275 | inactive
CG2126 | SID104195210 | 1.29e5 | 1.17e5 | 2.27e5 | 2.17e5 | 8510 | inactive
CG17717 | SID104197922 | 1.67e5 | 1.43e5 | 2.68e5 | 1.93e5 | 11400 | inactive
CG13217 | SID104186131 | 1.16e5 | 1.58e5 | 1.65e5 | 1.80e5 | 13015 | inactive
